Results deposited as PubChem BioAssay AID1259405 (NCATS, 2018).
Aim: 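Silenced genes that increase secreted GFP made by CHO cells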 (primary screen). Cells: Chinese hamster CHO-K1 ovary cells with stable secreted eGFP expression. Knock-down reagent: single siRNA against mouse genes, 0.8 pmol siRNA per well (2 µl of 400 nM stock). Duration: 3 days. Measured: 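Per-well intracellular GFP measured by laser scanning cytometry, plus viability from ATP luminescence, each relative to plate median of non-targeting control wells, in %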. Direction: GFP, % of control: higher = more GFP per well, higher productivity; viability (ATP), % of control: higher = more viable cells (more ATP). Call rule: 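a knock-down is called active if GFP reaches 120% or more of non-targeting control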.
This is an unselected part of about 50,000 reagents tested. About 4,000 of all reagents (8%) were called active. 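Mouse siRNA library applied to hamster cells; one well for each siRNA.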 A number with no mark means an inactive call. Reagents against one gene are numbered here.

Zfp446 #1 scored GFP, % of control 34.7; viability (ATP), % of control 31.
Zfp446 #2 gave GFP, % of control 95.7; viability (ATP), % of control 87.3.
After knock-down of Nr2c1 #1, the record shows GFP, % of control 86.6; viability (ATP), % of control 70.6.
After knock-down of Nr2c1 #2, the record shows GFP, % of control 80.5; viability (ATP), % of control 80.6.
For Nr2c1 #3, the values are GFP, % of control 68.9; viability (ATP), % of control 76.3.
Depletion of Pkp3 #1 gave: GFP, % of control 30.6; viability (ATP), % of control 48.
Pkp3 #2 gave GFP, % of control 115; viability (ATP), % of control 136.
Knock-down of Pkp3 #3 came out at: GFP, % of control 83.1; viability (ATP), % of control 126.
Against Pfn1 #1, the entry reads GFP, % of control 120; viability (ATP), % of control 97.9.
After knock-down of Pfn1 #2, the record shows GFP, % of control 105; viability (ATP), % of control 47.7.
After knock-down of Pfn1 #3, the screen gave GFP, % of control 84.9; viability (ATP), % of control 105.
Mtss1 #1 gave GFP, % of control 78.6; viability (ATP), % of control 78.3.
Silencing of Mtss1 #2 resulted in: GFP, % of control 50.9; viability (ATP), % of control 90.
Knock-down of Mtss1 #3 came out at: GFP, % of control 93.4; viability (ATP), % of control 68.8.
For Tnfsf8 #1 the deposit lists GFP, % of control 57.7; viability (ATP), % of control 74.8.
Against Tnfsf8 #2, the values are GFP, % of control 133 (active); viability (ATP), % of control 124.
Tnfsf8 #3 showed GFP, % of control 70.7; viability (ATP), % of control 77.6.
Knock-down of Tuba1a #1 gave: GFP, % of control 90.5; viability (ATP), % of control 76.7.
Against Tuba1a #2, the values are GFP, % of control 81; viability (ATP), % of control 96.8.
Depletion of Kif21a #1 resulted in: GFP, % of control 72.4; viability (ATP), % of control 87.9.
Against Kif21a #2 the deposit lists GFP, % of control 52.5; viability (ATP), % of control 55.

Entries above with an active call (1):
Tnfsf8 #2: GFP, % of control = 133 (active); viability (ATP), % of control = 124

The listing continues.
With knock-down of Ube2d1 #1 the results were GFP, % of control 47; viability (ATP), % of control 44.
For Ube2d1 #2, the values are GFP, % of control 78.2; viability (ATP), % of control 66.4.
Silencing of Ube2d1 #3 resulted in: GFP, % of control 86.9; viability (ATP), % of control 138.
After knock-down of Fancb #1 the results were GFP, % of control 115; viability (ATP), % of control 56.4.
Fancb #2 showed GFP, % of control 116; viability (ATP), % of control 102.
Depletion of Fancb #3 gave: GFP, % of control 161 (active); viability (ATP), % of control 162.
Knock-down of Dazap2 #1 came out at: GFP, % of control 90.9; viability (ATP), % of control 108.
Silencing of Dazap2 #2 gave: GFP, % of control 79.9; viability (ATP), % of control 71.9.
Dazap2 #3 showed GFP, % of control 109; viability (ATP), % of control 82.9.
Against Rbbp8nl #1, the entry reads GFP, % of control 83.3; viability (ATP), % of control 65.1.
Knock-down of Rbbp8nl #2 resulted in: GFP, % of control 93.1; viability (ATP), % of control 63.3.
For Rbbp8nl #3, the values are GFP, % of control 1.76; viability (ATP), % of control 4.74.
After knock-down of Gpr88 #1, the record shows GFP, % of control 58.3; viability (ATP), % of control 74.9.
Gpr88 #2 showed GFP, % of control 84.9; viability (ATP), % of control 72.4.
After knock-down of Gpr88 #3, the record shows GFP, % of control 77.3; viability (ATP), % of control 75.4.
For Cfl2 #1, the values are GFP, % of control 85.4; viability (ATP), % of control 89.8.
After knock-down of Cfl2 #2 the results were GFP, % of control 90.3; viability (ATP), % of control 79.
Knock-down of Stk26 #1 resulted in: GFP, % of control 160 (active); viability (ATP), % of control 110.
Stk26 #2 gave GFP, % of control 70.5; viability (ATP), % of control 86.8.
Silencing of Stk26 #3 resulted in: GFP, % of control 77.7; viability (ATP), % of control 90.5.
After knock-down of Stk26 #4, the screen gave GFP, % of control 108; viability (ATP), % of control 81.1.
Depletion of Cyp4f16 #1 resulted in: GFP, % of control 50.9; viability (ATP), % of control 32.5.
With knock-down of Cyp4f16 #2, the record shows GFP, % of control 105; viability (ATP), % of control 90.3.
After knock-down of Cyp4f16 #3, the screen gave GFP, % of control 87.8; viability (ATP), % of control 85.5.
For Defb10 #1, the entry reads GFP, % of control 106; viability (ATP), % of control 79.5.
Defb10 #2 showed GFP, % of control 77.8; viability (ATP), % of control 76.2.
With knock-down of Defb10 #3, the record shows GFP, % of control 154 (active); viability (ATP), % of control 63.7.
After knock-down of Or5b107 #1 the results were GFP, % of control 64.8; viability (ATP), % of control 54.
For Or5b107 #2 the deposit lists GFP, % of control 45.7; viability (ATP), % of control 50.1.
Against Or5b107 #3, the values are GFP, % of control 80.1; viability (ATP), % of control 77.7.
Tssk3 gave GFP, % of control 88; viability (ATP), % of control 59.8.
